Primary screen of a compound library

Values are the deposited “Percent Effect”, in %. The record does not define 0% and 100%; most values in the screen are far below 50% and negative numbers occur (in some assays of this library far below -100). This is an unselected part of the compounds tested. Two or more numbers in one place are separate tests of the same structure; such repeats can differ widely.

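Viability assay of Plasmodium falciparum sporozoites; the read-out is not stated. The concentration is filed as 10 mM, unlikely as a test dose, so the dose is not known. Direction is inferred from retests: higher values go with lower viability. Strong results were mostly tested again. Of about 34,000 compounds tested this way, about 280 (0.84%) reached 50% or more in at least one test.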

{"compound": "O=C(c1ccc(F)cc1F)N1C[C@@H](O)[C@H](N2CCOCC2)C1", "percent effect": 4.005}
{"compound": "[H][C@]12CC(Cn3cccn3)N(C)[C@@]1([H])CCN(Cc1cnn(C)c1)C2", "stereo": "stereo partly specified", "percent effect": -0.4476}
{"compound": "O=C(O)C(F)(F)F.[H][C@]12CC[C@@]3(N=C(C)N(CC4CC4)C3=O)[C@@]1([H])CN(Cc1ccc(C)cc1)C2", "percent effect": 10.11}
{"compound": "CCn1nc2c(cc1=O)CN(CCCN1CCCC1=O)CC2", "percent effect": 15.33}
{"compound": "CCOc1ccccc1C(CC(=O)Nc1ccc(C)cn1)NC(C)=O", "stereo": "stereo unspecified", "percent effect": 10.55}
{"compound": "CCCC(O)CN1CCC(=O)N(CCOC)Cc2ccccc21", "stereo": "stereo unspecified", "percent effect": -47.96}
{"compound": "Cc1noc(Cl)c1CCC(=O)N1CCCCC1Cn1cccn1", "stereo": "stereo unspecified", "percent effect": -12.51}
{"compound": "O=C(O)c1cccc(CN2CCCC(c3ccn[nH]3)C2)c1", "stereo": "stereo unspecified", "percent effect": 8.028}
{"compound": "Cc1ccc(C(=O)N(CCC#N)Cc2ccccn2)cc1C", "percent effect": -5.147}
{"compound": "Cc1cc(C)n2ncc(CN3C[C@@H](O)[C@H](Oc4ccccc4)C3)c2n1", "percent effect": 11.75}
{"compound": "COCCCN1CC2(CCCCN2C(=O)c2ccsc2)CC1=O", "stereo": "stereo unspecified", "percent effect": -2.762}
{"compound": "Cc1cccc(CN2CCCC2c2cccc(Nc3nccs3)n2)c1", "stereo": "stereo unspecified", "percent effect": 3.208}
{"compound": "CN(C(=O)c1cccc(Cl)c1)C1CCN(c2ccccn2)CC1", "percent effect": 6.837}
{"compound": "COc1cc(CNC(=O)NCCCF)cc(Br)c1OC", "percent effect": 3.004}
{"compound": "Cc1ccc(N2CCC3(CCN(C(=O)c4ccoc4)CC3)CC2)nn1.O=C(O)C(F)(F)F", "percent effect": -3.837}
{"compound": "COC(=O)[C@@H]1CN(C(=O)c2cscn2)C[C@H]1c1ccc(OC)cc1", "percent effect": 5.827}
{"compound": "CN(C)C1(CNC(=O)c2c(O)cc(Cl)cc2Cl)CCOCC1", "percent effect": -8.516}
{"compound": "Cc1nc(CN2C(=O)CCC23CCN(Cc2cccn2C)CC3)cs1.O=C(O)C(F)(F)F.O=C(O)C(F)(F)F", "percent effect": 10.62}
{"compound": "COCc1noc(-c2ccc(N(C)Cc3ccc(C)o3)nc2)n1", "percent effect": -25.35}
{"compound": "CCc1c(C)sc2nc3n(CCN(C)C)nc(SC)n3c(=O)c12", "percent effect": "-11.98 & -13.66"}
{"compound": "COc1ccc(C(CO)NC(=O)Nc2cccc(F)c2)cc1", "stereo": "stereo unspecified", "percent effect": "72.06 & 80.87"}
{"compound": "COc1cccc(COCC(=O)N2CCN(CC(C)(C)O)CC2)c1", "percent effect": -12.37}
{"compound": "CC(C)Cn1c2c(ccc1=O)CC(N)CC2", "stereo": "stereo unspecified", "percent effect": -5.817}
{"compound": "COCC1COCCC12CCN(S(=O)(=O)c1cccnc1)CC2.O=C(O)C(F)(F)F", "stereo": "stereo unspecified", "percent effect": 4.195}
{"compound": "CC(=O)N1CCC2(C1)c1ccccc1S(=O)(=O)N2C", "stereo": "stereo unspecified", "percent effect": -0.3466}
{"compound": "Cc1n[nH]c(C)c1CNCC(O)c1ccc(F)c(F)c1", "stereo": "stereo unspecified", "percent effect": -4.94}
{"compound": "COCCN1CCC2(CC1)CC(COC)N(c1ncccn1)C2.O=C(O)C(F)(F)F.O=C(O)C(F)(F)F", "stereo": "stereo unspecified", "percent effect": 11.12}
{"compound": "Cc1nn(C)c(N2CCOCC2)c1CNC(c1cccs1)C(C)C", "stereo": "stereo unspecified", "percent effect": 9.372}
{"compound": "Cc1c[nH]cc1C(=O)N1CCN(CCc2cccs2)CC1", "percent effect": 12.88}
{"compound": "CN(Cc1cccc(C#N)c1)c1ncc(C(N)=O)cc1Cl", "percent effect": -18.9}
{"compound": "CCOc1ccccc1OC1CCN(C(=O)c2nc(=O)[nH][nH]2)CC1", "percent effect": 14.67}
{"compound": "CC1CN(CCOc2ccccc2C#N)CCN1Cc1nccn1C", "stereo": "stereo unspecified", "percent effect": 1.885}
{"compound": "CN(C(=O)c1cccnc1OCC(F)F)c1ccc2c(c1)CCO2", "percent effect": -11.23}
{"compound": "Cc1nonc1CN(C)Cc1cnn(-c2ccc(Cl)cc2)c1", "percent effect": -21.68}
{"compound": "CCN1CCC2(CCN(Cc3ccc(OC)cc3)CC2)C1=O.O=C(O)C(F)(F)F", "percent effect": 23.73}
{"compound": "c1ccc2sc(CN3CCOC(Cn4cccn4)C3)nc2c1", "stereo": "stereo unspecified", "percent effect": "16.3 & 57.96 & 59.68"}
{"compound": "CC(C)Cn1nc(-c2ccc(C(=O)O)cc2)cc1-c1ccc(F)cc1", "percent effect": -4.748}

The last 3 entries again:

CCN1CCC2(CCN(Cc3ccc(OC)cc3)CC2)C1=O.O=C(O)C(F)(F)F read 23.73%.
c1ccc2sc(CN3CCOC(Cn4cccn4)C3)nc2c1 (stereo unspecified) read 16.3% & 57.96% & 59.68%.
CC(C)Cn1nc(-c2ccc(C(=O)O)cc2)cc1-c1ccc(F)cc1 read -4.748%.

Source: ChEMBL document CHEMBL3988442, “University of Dundee, Small-Polar-MMV Screening Library” (2021).